No constants are given. Whether binding was seen depends on the method and setting. Some entries that bind do so weakly or less than the wild type.

This experiment concerns the target T1, ScPho2 Pho4int (aa 112–407) (S. cerevisiae) (UniProt P07269).
T1 sequence: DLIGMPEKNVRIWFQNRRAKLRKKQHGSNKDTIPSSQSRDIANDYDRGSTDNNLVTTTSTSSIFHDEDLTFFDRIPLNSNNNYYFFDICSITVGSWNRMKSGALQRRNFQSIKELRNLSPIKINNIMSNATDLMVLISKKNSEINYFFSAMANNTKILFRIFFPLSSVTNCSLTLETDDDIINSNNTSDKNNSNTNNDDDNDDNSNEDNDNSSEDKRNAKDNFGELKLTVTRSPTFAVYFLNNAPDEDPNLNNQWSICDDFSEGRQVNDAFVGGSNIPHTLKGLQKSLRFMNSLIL
Kind of experiment: two-hybrid; Gal4 AD and Gal4 DBD fusions (pGAD-C3, pGBD-C3) co-transformed into a gal4Δ gal80Δ S. cerevisiae strain; patches grown at 30 °C for 24 h, replica plated onto SD -leu -trp -ade -his, imaged after 45–50 h; two independent transformants.

B1: ScPho4ΔDBD (aa 2–250) (domain or fragment, UniProt P07270 2-250)
chain: GRTTSEGIHGFVDDLEPKSSILDKVGDFITVNTKRHDGREDFNEQNDELNSQENHNSSENGNENENEQDSLALDDLDRAFELVEGMDMDWMMPSHAHHSPATTATIKPRLLYSPLIHTQSAVPVTISPNLVATATSTTSANKVTKNKSNSSPYLNKRRGKPGPDSATSLFELPDSVIPTPKPKPKPKQYPKVILPSNSTRRVSPVTAKTSSSAEGVVVASESPVIAPHGSSHSRSLSKRRSSGALVDDD
Take B1: the binding entry is recorded as “binds”.

For the origin of these results see paper PMC12177071, “Divergence in a eukaryotic transcription factor’s co-TF dependence involves multiple intrinsically disordered regions”.
